# Measurements reported in PubChem BioAssay AID1259266 (Sanger Institute, 2017).
# Assay: 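Search kinases and colorectal cancer genes for essential genes and drug synergy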 (primary screen)
# Cells: LS123 human colorectal cancer cells
# Knock-down reagent: siRNA pool against human genes
# Treatment: anchor drugs BYL719 (1 µM), cetuximab (5 µg/ml) or trametinib (10 nM), each chosen to barely slow growth alone; DMSO vehicle as the drug-free arm
# Detection: 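Replicate-averaged viability scaled to non-targeting pools, robust z-score for siRNA alone, and a synergy score per anchor drug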
# Reading the numbers: robust z-score, knock-down alone: higher = more cells surviving after knock-down; viability, knock-down alone: higher = more viable cells; synergy score with trametinib and synergy score with BYL719 and synergy score with cetuximab: higher = stronger synthetic lethality with drug
# Active means: 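Essential when the robust z-score of the knock-down alone is below -3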
# Meaning of the calls: active = essential (knock-down alone cuts viability); inactive = no change
# This is an unselected part of 794 deposited reagents. 16 of all reagents (2%) count as active. 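Calls reflect knock-down alone, not drug synergy; viability seems capped at 1 and z-scores at 0.585.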 Unmarked entries are inactive. Not given: the amount of reagent, the time to read-out.
Target gene,"robust z-score, knock-down alone","viability, knock-down alone (fraction of control)",synergy score with trametinib,synergy score with BYL719,synergy score with cetuximab
MYLK4 (myosin light chain kinase family member 4),0.585,1,-0.104,-0.159,-0.0122
GCK (glucokinase),-3.54 (active),0.755,-0.138,-0.0604,-0.0358
CLK1 (CDC like kinase 1),0.156,0.975,-0.0712,-0.0892,-0.0374
PHKA2 (phosphorylase kinase regulatory subunit alpha 2),-1.43,0.88,-0.0448,-0.102,0.00092
AURKA (aurora kinase A),-4.69 (active),0.687,-0.0928,-0.0841,0.0406
CAMK2B (calcium/calmodulin dependent protein kinase II beta),0.585,1,-0.0277,-0.0761,-0.0122
ITPKA (inositol-trisphosphate 3-kinase A),0.585,1,-0.133,-0.08,-0.0122
IRAK3 (interleukin 1 receptor associated kinase 3),-2.12,0.84,-0.0332,-0.126,0.0547
PRKCE (protein kinase C epsilon),0.585,1,0.0329,-0.00402,0.0244
PIK3R1 (phosphoinositide-3-kinase regulatory subunit 1),0.585,1,-0.113,-0.159,-0.0122
PTPRU (protein tyrosine phosphatase receptor type U),0.323,0.984,-0.0395,0.0245,0.0435
MAGI1,0.585,1,-0.0546,-0.104,-0.00884
PRKCB (protein kinase C beta),0.585,1,-0.0417,-0.0308,0.0423
MINK1 (misshapen like kinase 1),0.585,1,-0.0471,-0.0786,-0.0122
GRK1 (G protein-coupled receptor kinase 1),0.585,1,-0.135,-0.0912,-0.0122
"PIKFYVE (phosphoinositide kinase, FYVE-type zinc finger containing)",0.585,1,-0.102,-0.139,-0.0122
NEK11 (NIMA related kinase 11),-1.23,0.892,-0.0797,-0.126,-0.0911
NUAK1 (NUAK family kinase 1),-1.76,0.861,0.000251,-0.0873,0.0999
LMTK1 (lemur tail kinase 1),-1.41,0.882,-0.0799,-0.126,-0.0856
"PRKDC (protein kinase, DNA-activated, catalytic subunit)",0.585,1,-0.101,-0.043,-0.00862
ROR2 (ROR family WNT receptor 2),0.585,1,0.00426,-0.152,0.0122
CDK7 (cyclin dependent kinase 7),0.585,1,-0.0937,-0.145,-0.0122
CDKL4 (cyclin dependent kinase like 4),-0.994,0.906,-0.0203,-0.129,-0.0479
CDK12 (cyclin dependent kinase 12),-0.0327,0.963,-0.0885,-0.131,-0.0229
INSRR (insulin receptor related receptor),0.585,1,-0.166,-0.159,-0.0122
MAP2K1 (mitogen-activated protein kinase kinase 1),0.585,1,-0.164,-0.152,-0.0122
CHD9 (chromodomain helicase DNA binding protein 9),-1.58,0.871,-0.127,-0.202,-0.0833
TPD52L3 (TPD52 like 3),0.585,1,0.00675,-0.0526,-0.0122
"PFKL (phosphofructokinase, liver type)",0.585,1,-0.0994,-0.0707,-0.0122
TSSK4 (testis specific serine kinase 4),0.585,1,-0.076,-0.05,-0.0122
VRK1 (VRK serine/threonine kinase 1),0.585,1,-0.0428,-0.159,-0.0122
MYLK2 (myosin light chain kinase 2),-2.03,0.845,-0.000332,-0.138,-0.0366
ITK (IL2 inducible T cell kinase),0.585,1,-0.0507,-0.159,-0.0122
PIK3R2 (phosphoinositide-3-kinase regulatory subunit 2),0.585,1,-0.165,-0.159,-0.0122
NIM1K (NIM1 serine/threonine protein kinase),0.585,1,-0.0948,-0.159,-0.0122
NEK7 (NIMA related kinase 7),0.585,1,-0.186,-0.159,-0.0122
PRKACA (protein kinase cAMP-activated catalytic subunit alpha),0.585,1,-0.101,-0.122,-0.0122
STK35 (serine/threonine kinase 35),0.585,1,-0.0569,-0.0884,-0.00523
FN3K (fructosamine 3 kinase),0.585,1,0.00944,-0.11,-0.0122
STK4 (serine/threonine kinase 4),0.585,1,-0.186,-0.115,-0.0122
EPHA3 (EPH receptor A3),0.252,0.98,-0.000457,-0.0277,0.0487
SNRK (SNF related kinase),0.585,1,-0.0616,-0.0901,-0.0122
"RAF1 (Raf-1 proto-oncogene, serine/threonine kinase)",0.585,1,-0.114,-0.0566,-0.0122
ALPK3 (alpha kinase 3),0.585,1,-0.0706,-0.14,0.0123
"CKMT2 (creatine kinase, mitochondrial 2)",0.585,1,0.0113,0.0459,0.0391
"PCK2 (phosphoenolpyruvate carboxykinase 2, mitochondrial)",0.585,1,-0.186,-0.139,-0.0122
EPHB3 (EPH receptor B3),-0.662,0.926,-0.0995,-0.147,-0.0854
ZC3H11A (zinc finger CCCH-type containing 11A),0.32,0.984,0.0816,0.086,0.12
CAD,0.585,1,-0.137,-0.106,-0.0122
ALPK2 (alpha kinase 2),0.585,1,-0.124,-0.144,-0.0122

Hits (from the list above):
Target gene,"robust z-score, knock-down alone","viability, knock-down alone (fraction of control)",synergy score with trametinib,synergy score with BYL719,synergy score with cetuximab
GCK (glucokinase),-3.54 (active),0.755,-0.138,-0.0604,-0.0358
AURKA (aurora kinase A),-4.69 (active),0.687,-0.0928,-0.0841,0.0406
